# According to paper PMC7611231, “Allosteric Activation of the ATPase Activity of the Escherichia coli RhlB RNA Helicase*” (The Journal of biological chemistry, 2007):
# No constants are given. Whether binding was seen depends on the method and setting.
# Tests used:
# [1] = target: Escherichia coli DEAD box RNA helicase RhlB, wild type (E. coli) (UniProt P0A8J8); experiment: SEC; S200 size exclusion of the purified helicase alone; both purified
# [2] = target: Escherichia coli DEAD box RNA helicase RhlB, wild type (E. coli) (UniProt P0A8J8); experiment: native MS; nanoflow ESI under non-dissociating conditions; apo-RhlB (without the RNase E peptide), 5-20 uM, 250 mM ammonium acetate; both purified
binder,measurement,setting,value
"Escherichia coli DEAD box RNA helicase RhlB, wild type (enzyme, E. coli, UniProt P0A8J8 1-421, looked up, The same untagged protein from two vectors (pET11a alone; second cloning site of pRSF-Duet-1, NdeI/XhoI, in pRneRhlB); also called WT RhlB; Helicase B; source: E. coli BL21(DE3), pET11a, purified (published procedure plus S200 size exclusion)) MSKTHLTEQKFSDFALHPKVVEALEKKGFHNCTPIQALALPLTLAGRDVAGQAQTGTGKTMAFLTSTFHYLLSHPAIADRKVNQPRALIMAPTRELAVQIHADAEPLAEATGLKLGLAYGGDGYDKQLKVLESGVDILIGTTGRLIDYAKQNHINLGAIQVVVLDEADRMYDLGFIKDIRWLFRRMPPANQRLNMLFSATLSYRVRELAFEQMNNAEYIEVEPEQKTGHRIKEELFYPSNEEKMRLLQTLIEEEWPDRAIIFANTKHRCEEIWGHLAADGHRVGLLTGDVAQKKRLRILDEFTRGDLDILVATDVAARGLHIPAVTHVFNYDLPDDCEDYVHRIGRTGRAGASGHSISLACEEYALNLPAIETYIGHSIPVSKYNPDALMTDLPKPLRLTRPRTGNGPRRTGAPRNRRRSG",binding,[1],no binding
same,binding,[2],no binding
